These are yes or no findings as the source states them, for the method shown. In cells and extracts the contact can be indirect. Some entries that bind do so weakly or less than the wild type.
Target: myc-tagged Myocardin (full-length mouse Myocardin) (mouse) (UniProt Q8VIM5)
Experiment: co-IP; myc-Myocardin and flag-Stat3 cotransfected into rat cardiomyocytes; lysates precipitated with myc antibody and with flag antibody, SDS-PAGE, blots probed with myc and flag antibodies

Amino acid sequences for entries named in this document (tags omitted).
UniProt Q8VIM5: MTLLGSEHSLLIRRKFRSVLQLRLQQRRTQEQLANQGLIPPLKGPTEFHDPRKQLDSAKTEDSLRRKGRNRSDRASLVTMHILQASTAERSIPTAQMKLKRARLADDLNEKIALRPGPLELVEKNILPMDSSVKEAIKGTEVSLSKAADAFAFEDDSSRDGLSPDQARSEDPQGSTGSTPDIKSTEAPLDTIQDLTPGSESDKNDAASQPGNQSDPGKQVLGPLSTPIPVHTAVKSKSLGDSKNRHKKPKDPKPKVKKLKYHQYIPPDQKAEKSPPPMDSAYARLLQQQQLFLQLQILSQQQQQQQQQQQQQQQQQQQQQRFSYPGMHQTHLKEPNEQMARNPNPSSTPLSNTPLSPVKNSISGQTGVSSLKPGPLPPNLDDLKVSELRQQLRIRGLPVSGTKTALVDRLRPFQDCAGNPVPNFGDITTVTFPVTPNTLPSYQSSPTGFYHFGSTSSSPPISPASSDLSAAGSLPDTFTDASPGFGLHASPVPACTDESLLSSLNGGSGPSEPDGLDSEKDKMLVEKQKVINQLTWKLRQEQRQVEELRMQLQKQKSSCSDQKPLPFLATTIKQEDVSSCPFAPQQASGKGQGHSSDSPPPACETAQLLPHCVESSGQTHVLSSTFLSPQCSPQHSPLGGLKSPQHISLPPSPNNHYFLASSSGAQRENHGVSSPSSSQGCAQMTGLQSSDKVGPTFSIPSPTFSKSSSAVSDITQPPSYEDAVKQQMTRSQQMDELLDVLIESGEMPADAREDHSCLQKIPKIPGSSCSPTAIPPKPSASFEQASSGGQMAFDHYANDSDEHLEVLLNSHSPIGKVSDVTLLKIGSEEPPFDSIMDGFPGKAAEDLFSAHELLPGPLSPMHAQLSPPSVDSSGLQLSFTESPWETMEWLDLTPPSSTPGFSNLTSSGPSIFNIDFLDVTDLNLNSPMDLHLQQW
UniProt P42227: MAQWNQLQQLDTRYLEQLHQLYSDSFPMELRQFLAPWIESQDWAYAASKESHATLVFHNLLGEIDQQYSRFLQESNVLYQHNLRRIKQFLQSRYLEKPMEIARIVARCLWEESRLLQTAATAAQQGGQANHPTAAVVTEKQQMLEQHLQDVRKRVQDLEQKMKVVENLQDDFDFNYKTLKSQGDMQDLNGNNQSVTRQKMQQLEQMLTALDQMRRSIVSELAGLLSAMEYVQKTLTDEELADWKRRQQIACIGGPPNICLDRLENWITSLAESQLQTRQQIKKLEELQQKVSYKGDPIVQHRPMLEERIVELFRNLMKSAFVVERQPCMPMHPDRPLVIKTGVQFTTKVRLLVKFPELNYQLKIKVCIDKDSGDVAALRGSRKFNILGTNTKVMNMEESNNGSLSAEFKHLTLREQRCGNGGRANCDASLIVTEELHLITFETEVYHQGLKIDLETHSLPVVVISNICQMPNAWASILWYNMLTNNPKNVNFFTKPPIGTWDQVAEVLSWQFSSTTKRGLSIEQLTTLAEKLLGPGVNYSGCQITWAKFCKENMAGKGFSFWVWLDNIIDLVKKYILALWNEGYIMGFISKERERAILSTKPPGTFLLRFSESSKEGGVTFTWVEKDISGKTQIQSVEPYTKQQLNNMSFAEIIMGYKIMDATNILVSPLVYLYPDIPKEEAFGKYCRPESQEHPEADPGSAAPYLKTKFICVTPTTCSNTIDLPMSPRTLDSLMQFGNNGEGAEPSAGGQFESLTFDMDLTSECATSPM

- binding: binds
Substance: flag-tagged Stat3 (full-length mouse Signal transducer and activator of transcription 3) (from UniProt P42227 1-770)
